From publication PMC4624725
No constants are given. Whether binding was seen depends on the method and setting. Binding seen in cells or lysates may run through a third protein. Binding can be weak; no strength is given.

The chains behind the UniProt entries cited, without tags or fusion partners. Where a name states a change or a piece, a line headed by the entry shows the natural chain unless it says otherwise.
UniProt P0C1G9: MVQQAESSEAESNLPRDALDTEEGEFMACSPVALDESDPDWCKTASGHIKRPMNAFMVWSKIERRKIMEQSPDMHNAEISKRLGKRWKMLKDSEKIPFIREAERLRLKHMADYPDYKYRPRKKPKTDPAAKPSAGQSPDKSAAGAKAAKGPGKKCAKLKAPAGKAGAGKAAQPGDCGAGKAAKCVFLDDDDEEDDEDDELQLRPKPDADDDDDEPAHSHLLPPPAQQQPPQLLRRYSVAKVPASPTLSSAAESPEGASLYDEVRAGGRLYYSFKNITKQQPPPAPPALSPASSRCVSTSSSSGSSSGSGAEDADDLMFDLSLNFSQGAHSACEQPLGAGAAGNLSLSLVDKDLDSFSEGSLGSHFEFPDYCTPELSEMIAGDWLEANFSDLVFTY

Tests used:
Experiment in all cases: co-IP; HEK 293FT lysates (NP-40 buffer); flag-sox11 deletion mutants immunoprecipitated with anti-flag on Dynabeads, caspase-6 detected with anti-caspase-6
Flag-Sox11 ΔC33 (rat) = Flag-Sox11 ΔC33 (rat) (UniProt P0C1G9)
[1] = target: Flag-Sox11 ΔC33Δ117–214 (rat) (UniProt P0C1G9)
Flag-Sox11 ΔHMG (rat) = Flag-Sox11 ΔHMG (rat) (UniProt P0C1G9)

Measured: binding

B1: caspase-6 C163A (full length, in HEK 293FT cells) (enzyme, UniProt P55212 1-293)
chain: MSSASGLRRGHPAGGEENMTETDAFYKREMFDPAEKYKMDHRRRGIALIFNHERFFWHLTLPERRGTCADRDNLTRRFSDLGFEVKCFNDLKAEELLLKIHEVSTVSHADADCFVCVFLSHGEGNHIYAYDAKIEIQTLTGLFKGDKCHSLVGKPKIFIIQAARGNQHDVPVIPLDVVDNQTEKLDTNITEVDAASVYTLPAGADFLMCYSVAEGYYSHRETVNGSWYIQDLCEMLGKYGSSLEFTELLTLVNRKVSQRRVDFCKDPSAIGKKQVPCFASMLTKKLHFFPKSN
binds: all assays above

B2: procaspase-6 (wild type, full length caspase-6) (enzyme, UniProt P55212 1-293)
chain: MSSASGLRRGHPAGGEENMTETDAFYKREMFDPAEKYKMDHRRRGIALIFNHERFFWHLTLPERRGTCADRDNLTRRFSDLGFEVKCFNDLKAEELLLKIHEVSTVSHADADCFVCVFLSHGEGNHIYAYDAKIEIQTLTGLFKGDKCHSLVGKPKIFIIQACRGNQHDVPVIPLDVVDNQTEKLDTNITEVDAASVYTLPAGADFLMCYSVAEGYYSHRETVNGSWYIQDLCEMLGKYGSSLEFTELLTLVNRKVSQRRVDFCKDPSAIGKKQVPCFASMLTKKLHFFPKSN
binds: all assays above
